Assay results: PMC11648230, “Structure–function analysis of tRNA t^6A-catalysis, assembly, and thermostability of Aquifex aeolicus TsaD2B2 tetramer in complex with TsaE” (The Journal of Biological Chemistry, 2024)
Results are given in words; binding and its absence hold for the method and conditions named. One block for each binder: values may come before it.

Experiments:
[1] = target: Thermotoga maritima TsaB with nine alanine mutations in β3 (Thermotoga maritima) (UniProt Q9WZX7); assay: SEC; co-purified TsaD–TsaB complexes and variants; elution profiles compared with one another (tetramer against dimer); Superdex 200, after Ni-NTA; both purified
[2] = target: Aquifex aeolicus TsaE (Aquifex aeolicus) (UniProt O67011); assay: SEC; A. aeolicus TsaE alone; elution volume compared with monomeric TsaEs of T. maritima and E. coli; both purified

binding [1]: no binding
B1: Thermotoga maritima TsaB with nine alanine mutations in β3 (protein, UniProt Q9WZX7 2-206)
chain: NVLALDTSQRIRIGLRKGAAAFAIAAAGAAKHAEILPVVVKKLLDELDLKVKDLDVVGVGIGPGGLTGLRVGIATVVGLVSPYDIPVAPLNSFEMTAKSCPADGVVLVARRARKGYHYCAVYLKDKGLNPLKEPSVVSDEELEEITKEFSPKIVLKDDLLISPAVLVEESERLFREKKTIHYYEIEPLYLQKSIAELNWEKKKRG

binding [2]: no binding
B2: Aquifex aeolicus TsaE (enzyme, UniProt O67011 1-133)
chain: MELLKEVILESEEDTYKLAEEIAQLLKGSEVICLRGTLGAGKTTFVKALAKALKVKNPSAVRSPTFTLVNEYETDKGKLIHIDLYRVPDFDYSEFIGEGILAVEWEERDKPCDIILEIEILDENKRKVRIYRK
